Test results as given in patent US20060257938A1, “Method of screening for drugs that block ligand binding to a lipid binding protein” (priority 2005, published 2006).

Experiment: Baseline fluorescence ratio Ro of probe in absence of analyte
Settings: Table 5; baseline ratio, no analyte

Molecule	Ro
L2P22H10: FABP probe, substitutions M18I F55G A73M vs SEQ ID NO: 2 (protein, listed as Rattus norvegicus, PEPTIDE (1)...(131) wild-type rat intestinal fatty acid binding protein) AFDGTWKVDRNENYEKFIEKMGINVVKRKLGAHDNLKLTITQEGNKFTVKESSNGRNIDVVFELGVDFAYSLMDGTELTGTWTMEGNKLVGKFKRVDNGKELIAVREISGNELIQTYTYEGVEAKRIFKKE	0.30
L2P17H10: FABP probe, substitutions M18G G31F A73L vs SEQ ID NO: 2 (protein, listed as Rattus norvegicus, PEPTIDE (1)...(131) wild-type rat intestinal fatty acid binding protein) AFDGTWKVDRNENYEKFGEKMGINVVKRKLFAHDNLKLTITQEGNKFTVKESSNFRNIDVVFELGVDFAYSLLDGTELTGTWTMEGNKLVGKFKRVDNGKELIAVREISGNELIQTYTYEGVEAKRIFKKE	0.23
L2P18H12: FABP probe, substitutions M18I G31V A73G vs SEQ ID NO: 2 (protein, listed as Rattus norvegicus, PEPTIDE (1)...(131) wild-type rat intestinal fatty acid binding protein) AFDGTWKVDRNENYEKFIEKMGINVVKRKLVAHDNLKLTITQEGNKFTVKESSNFRNIDVVFELGVDFAYSLGDGTELTGTWTMEGNKLVGKFKRVDNGKELIAVREISGNELIQTYTYEGVEAKRIFKKE	0.36
L2P23A4: FABP probe, substitutions M18V G31I F55L A73V vs SEQ ID NO: 2 (protein, listed as Rattus norvegicus, PEPTIDE (1)...(131) wild-type rat intestinal fatty acid binding protein) AFDGTWKVDRNENYEKFVEKMGINVVKRKLIAHDNLKLTITQEGNKFTVKESSNLRNIDVVFELGVDFAYSLVDGTELTGTWTMEGNKLVGKFKRVDNGKELIAVREISGNELIQTYTYEGVEAKRIFKKE	0.40
L2P22G6: FABP probe, substitutions M18I G31Y A73G vs SEQ ID NO: 2 (protein, listed as Rattus norvegicus, PEPTIDE (1)...(131) wild-type rat intestinal fatty acid binding protein) AFDGTWKVDRNENYEKFIEKMGINVVKRKLYAHDNLKLTITQEGNKFTVKESSNFRNIDVVFELGVDFAYSLGDGTELTGTWTMEGNKLVGKFKRVDNGKELIAVREISGNELIQTYTYEGVEAKRIFKKE	0.30
L2P21G3: FABP probe, substitutions M18I G31M F55M vs SEQ ID NO: 2 (protein, listed as Rattus norvegicus, PEPTIDE (1)...(131) wild-type rat intestinal fatty acid binding protein) AFDGTWKVDRNENYEKFIEKMGINVVKRKLMAHDNLKLTITQEGNKFTVKESSNMRNIDVVFELGVDFAYSLADGTELTGTWTMEGNKLVGKFKRVDNGKELIAVREISGNELIQTYTYEGVEAKRIFKKE	0.36
L2P21C1: FABP probe, substitutions M18I G31Y A73V vs SEQ ID NO: 2 (protein, listed as Rattus norvegicus, PEPTIDE (1)...(131) wild-type rat intestinal fatty acid binding protein) AFDGTWKVDRNENYEKFIEKMGINVVKRKLYAHDNLKLTITQEGNKFTVKESSNFRNIDVVFELGVDFAYSLVDGTELTGTWTMEGNKLVGKFKRVDNGKELIAVREISGNELIQTYTYEGVEAKRIFKKE	0.36
L2P2E11: FABP probe, substitutions M18I G31F vs SEQ ID NO: 2 (protein, listed as Rattus norvegicus, PEPTIDE (1)...(131) wild-type rat intestinal fatty acid binding protein) AFDGTWKVDRNENYEKFIEKMGINVVKRKLFAHDNLKLTITQEGNKFTVKESSNFRNIDVVFELGVDFAYSLADGTELTGTWTMEGNKLVGKFKRVDNGKELIAVREISGNELIQTYTYEGVEAKRIFKKE	0.31
L2P11B4: FABP probe, substitutions M18V G31A A73W vs SEQ ID NO: 2 (protein, listed as Rattus norvegicus, PEPTIDE (1)...(131) wild-type rat intestinal fatty acid binding protein) AFDGTWKVDRNENYEKFVEKMGINVVKRKLAAHDNLKLTITQEGNKFTVKESSNFRNIDVVFELGVDFAYSLWDGTELTGTWTMEGNKLVGKFKRVDNGKELIAVREISGNELIQTYTYEGVEAKRIFKKE	0.35
L2P16A3: FABP probe, substitutions M18I G31L A73G vs SEQ ID NO: 2 (protein, listed as Rattus norvegicus, PEPTIDE (1)...(131) wild-type rat intestinal fatty acid binding protein) AFDGTWKVDRNENYEKFIEKMGINVVKRKLLAHDNLKLTITQEGNKFTVKESSNFRNIDVVFELGVDFAYSLGDGTELTGTWTMEGNKLVGKFKRVDNGKELIAVREISGNELIQTYTYEGVEAKRIFKKE	0.37
L2P8B8: FABP probe, substitution A73F vs SEQ ID NO: 2 (protein, listed as Rattus norvegicus, PEPTIDE (1)...(131) wild-type rat intestinal fatty acid binding protein) AFDGTWKVDRNENYEKFMEKMGINVVKRKLGAHDNLKLTITQEGNKFTVKESSNFRNIDVVFELGVDFAYSLFDGTELTGTWTMEGNKLVGKFKRVDNGKELIAVREISGNELIQTYTYEGVEAKRIFKKE	0.31
L2P12C5: FABP probe, substitutions M18I G31I F55M A73I vs SEQ ID NO: 2 (protein, listed as Rattus norvegicus, PEPTIDE (1)...(131) wild-type rat intestinal fatty acid binding protein) AFDGTWKVDRNENYEKFIEKMGINVVKRKLIAHDNLKLTITQEGNKFTVKESSNMRNIDVVFELGVDFAYSLIDGTELTGTWTMEGNKLVGKFKRVDNGKELIAVREISGNELIQTYTYEGVEAKRIFKKE	0.39
L2P23G7: FABP probe, substitutions M18V G31F F55L vs SEQ ID NO: 2 (protein, listed as Rattus norvegicus, PEPTIDE (1)...(131) wild-type rat intestinal fatty acid binding protein) AFDGTWKVDRNENYEKFVEKMGINVVKRKLFAHDNLKLTITQEGNKFTVKESSNLRNIDVVFELGVDFAYSLADGTELTGTWTMEGNKLVGKFKRVDNGKELIAVREISGNELIQTYTYEGVEAKRIFKKE	0.30
L2P8A6: FABP probe, substitutions M18I G31V F55V A73V vs SEQ ID NO: 2 (protein, listed as Rattus norvegicus, PEPTIDE (1)...(131) wild-type rat intestinal fatty acid binding protein) AFDGTWKVDRNENYEKFIEKMGINVVKRKLVAHDNLKLTITQEGNKFTVKESSNVRNIDVVFELGVDFAYSLVDGTELTGTWTMEGNKLVGKFKRVDNGKELIAVREISGNELIQTYTYEGVEAKRIFKKE	0.36
L2P22E6: FABP probe, substitutions M18V G31A F55I A73W vs SEQ ID NO: 2 (protein, listed as Rattus norvegicus, PEPTIDE (1)...(131) wild-type rat intestinal fatty acid binding protein) AFDGTWKVDRNENYEKFVEKMGINVVKRKLAAHDNLKLTITQEGNKFTVKESSNIRNIDVVFELGVDFAYSLWDGTELTGTWTMEGNKLVGKFKRVDNGKELIAVREISGNELIQTYTYEGVEAKRIFKKE	0.35
L2P7F4: FABP probe, substitutions M18V G31V A73I vs SEQ ID NO: 2 (protein, listed as Rattus norvegicus, PEPTIDE (1)...(131) wild-type rat intestinal fatty acid binding protein) AFDGTWKVDRNENYEKFVEKMGINVVKRKLVAHDNLKLTITQEGNKFTVKESSNFRNIDVVFELGVDFAYSLIDGTELTGTWTMEGNKLVGKFKRVDNGKELIAVREISGNELIQTYTYEGVEAKRIFKKE	0.32
L2P8A5: FABP probe, substitutions M18V G31A F55W A73W vs SEQ ID NO: 2 (protein, listed as Rattus norvegicus, PEPTIDE (1)...(131) wild-type rat intestinal fatty acid binding protein) AFDGTWKVDRNENYEKFVEKMGINVVKRKLAAHDNLKLTITQEGNKFTVKESSNWRNIDVVFELGVDFAYSLWDGTELTGTWTMEGNKLVGKFKRVDNGKELIAVREISGNELIQTYTYEGVEAKRIFKKE	0.35
